In patent EP4786496A1 one finds binding data, which are given here for one molecule.

By UniProt entry, the sequences of proteins in these tests, tags left out. Where a name states a change or a piece, a line headed by the entry shows the natural chain unless it says otherwise.
UniProt Q96RJ3: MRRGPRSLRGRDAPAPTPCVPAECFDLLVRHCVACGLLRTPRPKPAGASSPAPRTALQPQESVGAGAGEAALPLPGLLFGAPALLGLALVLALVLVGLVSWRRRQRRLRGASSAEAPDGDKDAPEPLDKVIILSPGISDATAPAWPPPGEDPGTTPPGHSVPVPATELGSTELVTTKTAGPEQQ

Results are given in words; binding and its absence hold for the method and conditions named. Some entries that bind do so weakly or less than the wild type.

Assay [1] has as its target ACRO-BAFF-R-Fc (Acro-human BAFF-R Protein,his tag; ACRObiosystem BAFF-R-H52H5) (human) (UniProt Q96RJ3). Nature of the assay: phage ELISA. On the technique in general: An ELISA detects its analyte on a solid surface through an enzyme-linked reagent.
The target of assay [2] is Recombinant biotinylated Human BAFF-R Protein (KACTUS, BAFF-R-HM401) (human) (UniProt Q96RJ3). The assay is described as follows: phage ELISA.

B1: Clone 1 (monoclonal phage antibody) (scFv, V domains shown)
VH: EVQLVESGAEVKKPGASVKVSCKASGYTFTSYGISWVRQAPGQGLEWMGWISAYNGNTNYAQKLQGRVTMTTDTSTSTAYMELRSLRSDDTAVYYCARNTYYYDSSGYPNDAFDIWGQGTTVTVSS
VL: DIQMTQSPSSLSASVGDRVTITCRASQKISSYLNWYQQKPGKAPKLLIYAASSLQSGVPSRFSGSGSGADFTLTISSLQPEDFATYYCQQSYSPPTTFGGGTKVDIKR
Consider B1, for which the binding entry in assay [1] and in assay [2] was “binds” in each case.
